According to article PMC11200092:
Results are given in words; binding and its absence hold for the method and conditions named. Binding seen in cells or lysates may run through a third protein. Some entries that bind do so weakly or less than the wild type. For part of these data: Where a sequence is shown, tags or fusion partners need not be part of it.

Protein sequences, listed by entry. Tags and fused reporters are not part of them.
UniProt O95819: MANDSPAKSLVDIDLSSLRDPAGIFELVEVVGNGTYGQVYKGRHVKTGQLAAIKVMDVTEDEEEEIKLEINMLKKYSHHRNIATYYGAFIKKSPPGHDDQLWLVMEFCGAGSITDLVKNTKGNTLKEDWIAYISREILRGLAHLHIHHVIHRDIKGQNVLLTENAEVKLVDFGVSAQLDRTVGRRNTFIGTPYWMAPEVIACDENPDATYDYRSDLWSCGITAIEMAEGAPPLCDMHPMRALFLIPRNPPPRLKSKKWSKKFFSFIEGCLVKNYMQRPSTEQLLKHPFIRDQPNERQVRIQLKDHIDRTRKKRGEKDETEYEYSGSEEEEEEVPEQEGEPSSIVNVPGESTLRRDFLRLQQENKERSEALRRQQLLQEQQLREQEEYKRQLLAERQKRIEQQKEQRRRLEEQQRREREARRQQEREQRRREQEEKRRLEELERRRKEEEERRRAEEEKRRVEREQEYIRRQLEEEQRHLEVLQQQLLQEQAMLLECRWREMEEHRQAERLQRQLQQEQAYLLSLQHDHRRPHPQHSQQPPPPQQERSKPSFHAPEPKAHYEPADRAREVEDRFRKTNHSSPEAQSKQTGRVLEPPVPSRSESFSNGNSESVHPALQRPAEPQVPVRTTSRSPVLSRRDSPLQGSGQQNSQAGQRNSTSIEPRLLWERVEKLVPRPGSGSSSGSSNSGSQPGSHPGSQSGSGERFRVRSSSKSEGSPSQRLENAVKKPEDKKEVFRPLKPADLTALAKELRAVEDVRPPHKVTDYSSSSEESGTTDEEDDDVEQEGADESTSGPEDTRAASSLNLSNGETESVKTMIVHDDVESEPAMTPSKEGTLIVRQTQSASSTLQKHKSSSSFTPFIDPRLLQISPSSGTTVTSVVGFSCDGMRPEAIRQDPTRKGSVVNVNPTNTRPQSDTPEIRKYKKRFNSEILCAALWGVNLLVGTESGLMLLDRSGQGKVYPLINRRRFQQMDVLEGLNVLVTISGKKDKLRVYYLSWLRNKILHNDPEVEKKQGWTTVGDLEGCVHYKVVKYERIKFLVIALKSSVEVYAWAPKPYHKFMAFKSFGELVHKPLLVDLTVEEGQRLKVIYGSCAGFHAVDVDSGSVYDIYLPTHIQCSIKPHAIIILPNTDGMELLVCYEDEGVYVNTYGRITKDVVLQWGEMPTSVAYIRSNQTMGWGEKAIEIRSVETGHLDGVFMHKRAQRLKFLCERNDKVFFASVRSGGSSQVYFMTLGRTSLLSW

Key:
[1] = target: mitogen-activated protein kinase 4 (MAP4K4), endogenous (human (endogenous in Huh7 and PLC/PRF/5)) (UniProt O95819); experiment: co-IP; endogenous proteins in Huh7 and PLC/PRF/5 lysates; anti-MAP4K4 or anti-G3BP2 antibody or control IgG overnight, then protein A/G magnetic beads 4 h; washed five times with TBS (50 mM Tris-HCl, 150 mM NaCl, pH 7.4); Western blot
[2] = target: HA-MAP4K4 (UniProt O95819); experiment: co-IP; HEK293T cells co-transfected with Flag-G3BP2 and HA-MAP4K4; lysates with anti-HA antibody and protein A/G magnetic beads or anti-FLAG magnetic beads, 4 °C overnight; washed five times with TBS (50 mM Tris-HCl, 150 mM NaCl, pH 7.4); Western blot

B1: Ras-GTPase-activating protein (SH3 domain)-binding protein 2 (G3BP2), endogenous (protein, UniProt Q9UN86 1-482)
chain: MVMEKPSPLLVGREFVRQYYTLLNKAPEYLHRFYGRNSSYVHGGVDASGKPQEAVYGQNDIHHKVLSLNFSECHTKIRHVDAHATLSDGVVVQVMGLLSNSGQPERKFMQTFVLAPEGSVPNKFYVHNDMFRYEDEVFGDSEPELDEESEDEVEEEQEERQPSPEPVQENANSGYYEAHPVTNGIEEPLEESSHEPEPEPESETKTEELKPQVEEKNLEELEEKSTTPPPAEPVSLPQEPPKAFSWASVTSKNLPPSGTVSSSGIPPHVKAPVSQPRVEAKPEVQSQPPRVREQRPRERPGFPPRGPRPGRGDMEQNDSDNRRIIRYPDSHQLFVGNLPHDIDENELKEFFMSFGNVVELRINTKGVGGKLPNFGFVVFDDSEPVQRILIAKPIMFRGEVRLNVEEKKTRAARERETRGGGDDRRDIRRNDRGPGGPRGIVGGGMMRDRDGRGPPPRGGMAQKLGSGRGTGQMEGRFTGQRR
binding [1]: binds

B2: Flag-G3BP2 (protein, UniProt Q9UN86 1-482)
chain: B1 chain
binding [2]: binds

B3: Peptide transporter 1 (PEPT1), endogenous (protein, UniProt P46059 1-708)
chain: MGMSKSHSFFGYPLSIFFIVVNEFCERFSYYGMRAILILYFTNFISWDDNLSTAIYHTFVALCYLTPILGALIADSWLGKFKTIVSLSIVYTIGQAVTSVSSINDLTDHNHDGTPDSLPVHVVLSLIGLALIALGTGGIKPCVSAFGGDQFEEGQEKQRNRFFSIFYLAINAGSLLSTIITPMLRVQQCGIHSKQACYPLAFGVPAALMAVALIVFVLGSGMYKKFKPQGNIMGKVAKCIGFAIKNRFRHRSKAFPKREHWLDWAKEKYDERLISQIKMVTRVMFLYIPLPMFWALFDQQGSRWTLQATTMSGKIGALEIQPDQMQTVNAILIVIMVPIFDAVLYPLIAKCGFNFTSLKKMAVGMVLASMAFVVAAIVQVEIDKTLPVFPKGNEVQIKVLNIGNNTMNISLPGEMVTLGPMSQTNAFMTFDVNKLTRINISSPGSPVTAVTDDFKQGQRHTLLVWAPNHYQVVKDGLNQKPEKGENGIRFVNTFNELITITMSGKVYANISSYNASTYQFFPSGIKGFTISSTEIPPQCQPNFNTFYLEFGSAYTYIVQRKNDSCPEVKVFEDISANTVNMALQIPQYFLLTCGEVVFSVTGLEFSYSQAPSNMKSVLQAGWLLTVAVGNIIVLIVAGAGQFSKQWAEYILFAALLLVVCVIFAIMARFYTYINPAEIEAQFDEDEKKNRLEKSNPYFMSGANSQKQM
binding [1]: no binding
